Data from publication PMC5437272.
Results are given in words; binding and its absence hold for the method and conditions named. Binding seen in cells or lysates may run through a third protein. Binding can be weak; no strength is given. For some assays here: Sequences can lack the tags named with a protein.

The chains behind the UniProt entries cited, without tags or fusion partners. Where a name states a change or a piece, a line headed by the entry shows the natural chain unless it says otherwise.
UniProt Q9DCB8: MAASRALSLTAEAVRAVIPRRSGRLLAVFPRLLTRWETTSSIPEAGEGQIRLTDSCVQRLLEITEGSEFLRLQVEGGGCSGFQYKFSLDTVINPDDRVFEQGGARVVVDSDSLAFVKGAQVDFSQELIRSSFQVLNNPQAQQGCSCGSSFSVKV
UniProt Q8CAK1: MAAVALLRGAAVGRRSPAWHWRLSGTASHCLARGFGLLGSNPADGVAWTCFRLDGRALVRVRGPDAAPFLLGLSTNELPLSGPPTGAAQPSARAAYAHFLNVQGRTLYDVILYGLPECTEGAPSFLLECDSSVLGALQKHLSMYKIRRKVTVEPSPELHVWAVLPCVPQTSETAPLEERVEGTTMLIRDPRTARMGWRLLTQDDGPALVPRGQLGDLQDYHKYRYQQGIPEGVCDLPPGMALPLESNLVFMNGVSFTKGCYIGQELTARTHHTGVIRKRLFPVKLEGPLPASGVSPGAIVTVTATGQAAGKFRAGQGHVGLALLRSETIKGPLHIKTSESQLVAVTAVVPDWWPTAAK

How the values were obtained:
[1] = molecular target: T1, ISCA1-Flag (mouse ISCA1 with a C-terminal Flag epitope) (mouse) (UniProt Q9D924); assay: co-IP; Flag M2 resin IP from mitochondria-enriched extracts of N2a cells transfected with ISCA1-Flag, ISCA2-Flag or IBA57-Flag, versus control IP; western blot of the eluates
T1 sequence: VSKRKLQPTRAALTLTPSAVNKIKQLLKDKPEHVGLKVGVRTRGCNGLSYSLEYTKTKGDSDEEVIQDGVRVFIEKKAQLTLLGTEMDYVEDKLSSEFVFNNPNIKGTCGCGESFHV

[2] = molecular target: ISCA2-Flag (mouse ISCA2 with a C-terminal Flag epitope) (mouse) (UniProt Q9DCB8); assay: as above

In the case of “ISCA2 (endogenous, N2a) (from UniProt Q9DCB8)”, the binding [1] is reported as “binds”.

In the case of “IBA57 (endogenous, N2a) (from UniProt Q8CAK1)”, the binding [2] is reported as “binds”.
